Source: PMC13101370
Results are given in words; binding and its absence hold for the method and conditions named. In cells and extracts the contact can be indirect. Some binding calls cover weakened binding; strength is not graded here.

The chains behind the UniProt entries cited, without tags or fusion partners.
UniProt Q7Z434: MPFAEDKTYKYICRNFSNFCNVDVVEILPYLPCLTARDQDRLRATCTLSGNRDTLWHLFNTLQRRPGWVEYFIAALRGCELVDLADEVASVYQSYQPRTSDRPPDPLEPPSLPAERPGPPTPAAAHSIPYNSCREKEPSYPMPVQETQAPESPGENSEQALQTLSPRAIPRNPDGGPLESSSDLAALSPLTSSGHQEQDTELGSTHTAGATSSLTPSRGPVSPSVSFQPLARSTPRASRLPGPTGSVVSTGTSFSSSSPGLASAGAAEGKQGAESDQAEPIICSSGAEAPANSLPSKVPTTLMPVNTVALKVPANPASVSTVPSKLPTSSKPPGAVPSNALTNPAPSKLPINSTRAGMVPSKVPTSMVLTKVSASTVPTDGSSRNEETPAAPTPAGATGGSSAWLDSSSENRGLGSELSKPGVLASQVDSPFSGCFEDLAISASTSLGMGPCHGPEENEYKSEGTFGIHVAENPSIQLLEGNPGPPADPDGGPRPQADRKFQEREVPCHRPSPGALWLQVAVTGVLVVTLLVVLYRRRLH
UniProt Q14258: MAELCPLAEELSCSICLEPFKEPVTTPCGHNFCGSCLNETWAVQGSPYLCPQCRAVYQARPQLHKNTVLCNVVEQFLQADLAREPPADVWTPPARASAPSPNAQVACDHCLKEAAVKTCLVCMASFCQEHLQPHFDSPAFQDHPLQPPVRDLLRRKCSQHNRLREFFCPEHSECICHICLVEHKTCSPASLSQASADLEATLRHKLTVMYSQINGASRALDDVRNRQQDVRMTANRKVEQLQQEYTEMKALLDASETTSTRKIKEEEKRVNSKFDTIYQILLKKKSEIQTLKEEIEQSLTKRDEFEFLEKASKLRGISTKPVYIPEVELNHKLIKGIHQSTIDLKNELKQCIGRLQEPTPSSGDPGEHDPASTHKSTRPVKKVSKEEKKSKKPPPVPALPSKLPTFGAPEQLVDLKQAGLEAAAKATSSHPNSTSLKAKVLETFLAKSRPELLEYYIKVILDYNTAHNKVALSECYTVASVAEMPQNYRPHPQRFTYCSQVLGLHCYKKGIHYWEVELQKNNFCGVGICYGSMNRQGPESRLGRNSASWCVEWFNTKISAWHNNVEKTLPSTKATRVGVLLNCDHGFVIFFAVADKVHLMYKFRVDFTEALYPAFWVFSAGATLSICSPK

Molecular target: Mitochondrial antiviral signaling protein (MAVS) (UniProt Q7Z434)
Test: co-IP; 293 T cells transfected with various combinations of plasmids and treated with or without FyHj-SER for 24 h; immunoblot of the immunoprecipitated samples; bait and antibody not told

Tripartite motif-containing protein 25 (TRIM25) (from UniProt Q14258 1-630) (enzyme)
binding: binds
